From the supplement of paper PMC8007513
The list shows a part of the results. Many values rest on one well or one pass, so single values are uncertain.

The molecules below were run on Saccharomyces cerevisiae BY4743 (assay: growth (OD600) relative to untreated control; higher = less growth inhibition). Conditions: compound concentration: 133 uM; 20 h.
Protocol: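 NMCCC compounds (133 uM, no IPBC) tested alone against Saccharomyces cerevisiae BY4743 in YPD, 96-well plates, starting OD600 ~0.1. Growth was read as OD600 at 20 h and expressed as % of the untreated control. Single pass.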

SMILES | growth
CC1=CC\2=C(C=C1C)N(CC(=O)NCC3=CC=C(Cl)C=C3)C(=O)\C(=N2)C(F)(F)F | 88.6%
COC(=O)c1c(C)[nH]c(C(=O)Cn2nnc(-c3ccc(C(C)C)cc3)n2)c1C | 112%
COc1cc(CC(=O)Nc2nc(CN3CC(C)OC(C)C3)cs2)cc(OC)c1OC (centres undefined) | 110%
N#Cc1cccnc1NCc1ccc(Cn2cncn2)cc1 | 106%
Cc1ccc(NC(=O)C(Sc2nnc(C)n2C)c2ccccc2)cc1 (centres undefined) | 99%
COc1ccc(Br)c(C(=O)Nc2ccc(S(=O)(=O)C(F)F)cc2)c1 | 95.7%
COc1ccc(OC)c(C(C)NC(=O)CSc2nc(C)c(C)c(C)c2C#N)c1 (centres undefined) | 104%
CCOC(=O)c1cnn2c1nc(O)c1ccccc12 | 103%
CCOC(=O)c1cc(C)n(CCCN2CCOCC2)c1C | 98.9%
CCOC(=O)c1cn(CC(=O)Nc2cc(C)cc(C)c2)nn1 | 106%
N#Cc1c(O)nc(SCc2cccc(C(=O)O)c2)nc1-c1ccco1 | 97%
CCOC(=O)c1c(C)[nH]c(C)c1C(=O)CN1CCc2cc(OC)c(OC)cc2C1 | 109%
COc1ccccc1NC(=O)c1ccc(NC(=O)CSc2ccccn2)cc1 | 84.2%
CCCN1\C=C(/C(=O)C2=CC(=CC=C12)CC)[S](=O)(=O)C3=CC=C(OC)C=C3 | 105%
CCOC(=O)Cc1c(O)nc2ccc(C)cc2c1-c1ccccc1 | 109%
CCOC(=O)C1CCN(C(=O)c2ccc(OC)c(S(=O)(=O)NC)c2)CC1 | 96.6%
CC(C)CC[N]1C(=CC(=C1C)C(=O)CN2\N=C(/C=C\C2=O)C3=CC=CC=C3)C | 101%
CC(C)CCNC(=O)CS\C1=N\C2=C(SC=C2)C(=O)N1NC(=O)C3=CC=CC=C3 | 97.3%
Cn1cc(CCNC(=O)NC2CCOc3ccccc32)cn1 (centres undefined) | 96.9%
CC(C)(C)C1=CSC(=N1)NC(=O)\C2=N\N(CC3=CC=C(F)C=C3)C(=O)CC2 | 85.5%

Laid out differently: three of the compounds above
SMILES	growth
CC1=CC\2=C(C=C1C)N(CC(=O)NCC3=CC=C(Cl)C=C3)C(=O)\C(=N2)C(F)(F)F	88.6%
COC(=O)c1c(C)[nH]c(C(=O)Cn2nnc(-c3ccc(C(C)C)cc3)n2)c1C	112%
COc1cc(CC(=O)Nc2nc(CN3CC(C)OC(C)C3)cs2)cc(OC)c1OC (centres undefined)	110%

Continuation.

SMILES | growth
Brc1nnnn1-c1ccc2c(c1)OCCO2 | 92.8%
O=C(Nc1cccc(N2CCCS2(=O)=O)c1)C(=O)N[C@H](CO)Cc1ccccc1 | 92%
CCCCN1\N=C(/C=C\C1=O)C(=O)NC2=CC=C(C=C2)[S](=O)(=O)N(C)CC3=CC=CC=C3 | 72.2%
Cc1cccc(NC(=O)CN(C)C(=O)c2cnn(-c3ccccc3F)c2C)c1C | 110%
CC(C(=O)NC(=O)NC(C)(C)C)N1CCC(c2nc3ccccc3s2)CC1 (centres undefined) | 110%
CCOC(=O)C(NC(=O)c1ccco1)(Nc1sc2c(c1C(=O)OC)CCCC2)C(F)(F)F (centres undefined) | 102%
O=C1NC(c2cc(Br)cs2)Oc2ccccc21 (centres undefined) | 92.3%
CCC1CCCCN1C(=O)C(C)OC(=O)c1ccc(-n2cccn2)cc1 (centres undefined) | 99.7%
CCCc1cc(O)nc(SCC(=O)Nc2c(C)nn(-c3ccccc3)c2C)n1 | 102%
Cc1ccc2c(c1)NC(C(C)C)NS2(=O)=O (centres undefined) | 88.7%
O=S(=O)(NCc1ccccc1Cn1cccn1)c1ccccc1C(F)(F)F | 106%
CCN1\C=C(\C#N)C(=O)N(CC(=O)NC2=CC=C(C)C=C2Cl)C1=O | 91.1%
COC1=CC=C(OC)C(=C1)C(=O)OCC(=O)N\2CC\C(=N2)C3=CC=CC=C3 | 96.5%
Nc1cn(-c2ccc(C(F)(F)F)cn2)nc1Cl | 100%
CCOC(=O)c1[nH]c(C)c(C(=O)Nc2c(C)cc(C)cc2C)c1C | 88.1%
CCC1=CC=C(Cl)C(=C1NC(=O)C/2=N/N(C)C(=O)/C=C2)CC | 99.9%
Cc1nn(-c2ccccc2)c(C)c1NC(=O)Cn1cnnn1 | 102%
CCOC(=O)N1CCN(C(=O)c2ccc(S(=O)(=O)N3CCCC(C)C3)cc2)CC1 (centres undefined) | 99.2%
CCCn1c(SCC(=O)Nc2ccc(C(N)=O)cc2)nc2ccc(C(F)(F)F)cc21 | 98.6%
